The full ranking holds about 33,000 sequences; the median of “E-score (-0.5 to 0.5)” is about -8e-05, and the highest 2% start at about 0.23. This is one part of the list.
target: T1, Nrg2 (UniProt P38082); assay: PBM E-score (8-mer binding enrichment) (E-score (-0.5 to 0.5)); higher = stronger / more preferred TF binding; conditions: protein concentration: 100 nM; construct: GST-full length
T1 sequence: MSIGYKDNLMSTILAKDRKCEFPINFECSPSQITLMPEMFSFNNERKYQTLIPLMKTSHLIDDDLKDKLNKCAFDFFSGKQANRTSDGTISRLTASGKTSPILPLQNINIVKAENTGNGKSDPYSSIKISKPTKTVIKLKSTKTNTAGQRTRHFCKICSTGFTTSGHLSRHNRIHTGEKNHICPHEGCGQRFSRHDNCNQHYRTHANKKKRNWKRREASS
Outline: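 PURExpress in vitro transcription/translation supplied GST-tagged yeast transcription factors, either full-length or DNA-binding domain. Applied at about 100-200 nM to universal all-10-mer Agilent arrays double-stranded by primer extension, the bound protein was detected with fluorescent anti-GST. E-scores, modified Wilcoxon-Mann-Whitney statistics, were given by the Universal PBM Analysis Suite to ungapped eight-base words pooled with their reverse complements after masliner normalisation.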

Sequence	PBM E-score
CAGAGAGG	-0.162
GGAGTGAC	0.102
ATGATATG	0.228
CAGTAGTC	-0.179
GTCGAACA	0.198
ACTTTGAA	-0.134
CACCGCTC	0.11
ATAAGGGC	0.17
ATCACCAC	0.13
AGGCAAAC	-0.0365
ACTTAGCG	0.0674
CTGATATC	0.0442
AATCTAAA	-0.0927
AGATGAGA	0.148
ACCCTGAT	0.249
ACAGAACT	0.0582
AACGATGG	-0.124
ACCATGAC	0.0718
AAGTCTAG	-0.282
ATTTGACC	0.0698
ACACAGTA	-0.103
AAGACAAC	0.235

Sequence	PBM E-score
GCACCTGA	0.0367
GCAAGGAC	0.0953
GCGGAAAA	0.0533
GACTGTTA	-0.0515
TCTGCACA	-0.0685
AAGCAGGC	-0.232
CTGTTCCA	-0.0207
TCGGCACA	-0.0415
GACGGCCC	-0.0825
ACCCGGCT	-0.116
ATCATCCG	-0.0548
CCGAGTTA	-0.0272
CTTCGTGA	0.0235
ATGGGTGC	-0.0107
AGGAGTCC	-0.207
AGGATCTC	-0.16
AAACACTC	0.149
AGCACACA	-0.0461
CAACCGAC	0.17
CTGCACAA	0.00758
CCACCATA	0.0773
ACGCTCTG	-0.155

A second format for part of the listing above:
Sequence | PBM E-score
ATGATATG | 0.228
GTCGAACA | 0.198
ACTTTGAA | -0.134
CACCGCTC | 0.11
AGGCAAAC | -0.0365
CTGATATC | 0.0442
AATCTAAA | -0.0927
AGATGAGA | 0.148
ACAGAACT | 0.0582
AACGATGG | -0.124
ACCATGAC | 0.0718
AAGTCTAG | -0.282
ATTTGACC | 0.0698
ACACAGTA | -0.103
GCACCTGA | 0.0367
GCAAGGAC | 0.0953
GCGGAAAA | 0.0533
GACTGTTA | -0.0515
TCTGCACA | -0.0685
TCGGCACA | -0.0415
GACGGCCC | -0.0825
ACCCGGCT | -0.116
CCGAGTTA | -0.0272
CTTCGTGA | 0.0235
ATGGGTGC | -0.0107
AGGAGTCC | -0.207
AGGATCTC | -0.16
AGCACACA | -0.0461
CAACCGAC | 0.17
CTGCACAA | 0.00758
CCACCATA | 0.0773
ACGCTCTG | -0.155

The results go on:

Sequence	PBM E-score
ATTTGATG	0.0343
GTCTCCCA	-0.178
CGAAGATA	0.216
ACGTTAAC	0.105
ACATTCAC	0.0832
CATCCTTA	0.00611
AGAAGGGG	-0.15
CCGCCTCA	-0.268
CCTGCGCG	0.125
CTCTTGGA	-0.0343
CCAGGGAG	-0.107
ATTGACTA	0.00845
GGCCGTCA	-0.12
GAAATCTC	-0.102
ACTGCTCC	0.0162
AGTCGGGC	-0.0859
GGAGCTGA	-0.155
CTTAAAAA	-0.057
CTTCCTCC	-0.301
AGGTTCAG	0.0524
AACGCGTG	0.0072
CTAAGCTA	0.112

Sequence	PBM E-score
AAGTCACC	-0.0997
AGAATTAT	0.0554
ACAGCTGA	0.0892
ACGTCGGA	0.0488
CGCTCCCG	-0.218
CTGTGCCA	-0.0838
CGCGCCGC	0.0975
CATGGACG	-0.0852
ACCAACCC	-0.0516
CTGAACAA	0.079
CTTAGATC	-0.0835
CGAAATCG	0.119
AAGGGTAA	0.0761
ACACGAGG	-0.0912
CCGAACGC	0.0363
CCAGAGGA	-0.133
AAATCAGG	0.0425
GATGGTCA	0.0733
TGCAAGAA	0.102
CCTCCGAG	-0.156
GGATCGGA	-0.175
GAATGGAA	0.154

Sequence	PBM E-score
CGTGTAGA	0.0517
GGGATCCA	0.0432
CACGTCAC	-8e-05
ATATAACG	0.243
CGTACGGC	-0.152
TGCGAGCA	0.123
CAATATAA	0.212
ATTGAACA	-0.0876
ATACCCAG	0.0171
CCCGAGAA	0.164
AAGAGTCG	0.0232
AGGTGACG	-0.154
ACGGCTAG	-0.271
AACCCATT	0.00038
CCTGATGC	0.0691
GGTGACTA	-0.0471
ACTGTATG	-0.0431
CGGCCAGA	-0.0298
CCGGCACG	-0.183
GGGTCCCA	0.137
AAAGCTAG	-0.0627
CTCGAGGC	0.192

Source: the supplement of paper PMC3334620
